{"source": "PubChem BioAssay AID1508597 – Cure First – 2020", "test": "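Knock-downs altering ovarian cancer cell survival with or without PARP inhibitor rucaparib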 (primary screen)", "cells": "human ovarian carcinoma lines grown from tumours: OCI-P5x (papillary serous) and OCI-C5x (clear cell)", "reagents": "siRNA pool against human genes, 1.25 pmol siRNA per well", "duration": "72 h or 96 h, depending on the cell culture", "challenge": "rucaparib 20 µM (about IC30) or vehicle, present until read-out", "rucaparib or vehicle": "Vehicle", "cell line": "OCI-P5x (serous)", "read-out": "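ATP luminescence measured at 72 or 96 h according to the culture, then normalised and expressed as percent viability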", "direction": "viability, normalised: higher = more viable cells remaining", "call rule": "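Active when normalised viability falls below 80 percent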", "calls": "active = viability under 80%; inactive = viability 80% or more", "note": "This is a random part of the about 2,100 reagents, under one of the conditions tested. 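Calls flag viability under 80% in either arm, not effects specific to rucaparib; the reference for percent is not stated.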 A reagent listed more than once was tested more than once; the source does not tell the runs apart. The record does not give: the 100% reference."}
{"gene knocked down": "CLDN1 (claudin 1)", "technical replicate": "1", "viability, normalised (%)": 70.9, "activity call": "active"}
{"gene knocked down": "CLDN1 (claudin 1)", "technical replicate": "2", "viability, normalised (%)": 82.5, "activity call": "inactive"}
{"gene knocked down": "CLDN1 (claudin 1)", "technical replicate": "3", "viability, normalised (%)": 92.3, "activity call": "inactive"}
{"gene knocked down": "CBX3 (chromobox 3)", "technical replicate": "1", "viability, normalised (%)": 76.7, "activity call": "active"}
{"gene knocked down": "CBX3 (chromobox 3)", "technical replicate": "2", "viability, normalised (%)": 71, "activity call": "active"}
{"gene knocked down": "CBX3 (chromobox 3)", "technical replicate": "3", "viability, normalised (%)": 57.8, "activity call": "active"}
{"gene knocked down": "DMPK (DM1 protein kinase)", "technical replicate": "1", "viability, normalised (%)": 73.1, "activity call": "active"}
{"gene knocked down": "DMPK (DM1 protein kinase)", "technical replicate": "2", "viability, normalised (%)": 61, "activity call": "active"}
{"gene knocked down": "DMPK (DM1 protein kinase)", "technical replicate": "3", "viability, normalised (%)": 72.1, "activity call": "active"}
{"gene knocked down": "AKT1 (AKT serine/threonine kinase 1)", "technical replicate": "1", "viability, normalised (%)": 80.4, "activity call": "inactive"}
{"gene knocked down": "AKT1 (AKT serine/threonine kinase 1)", "technical replicate": "2", "viability, normalised (%)": 81.2, "activity call": "inactive"}
{"gene knocked down": "AKT1 (AKT serine/threonine kinase 1)", "technical replicate": "3", "viability, normalised (%)": 93.4, "activity call": "inactive"}
{"gene knocked down": "SETD6 (SET domain containing 6, protein lysine methyltransferase)", "technical replicate": "1", "viability, normalised (%)": 48.6, "activity call": "active"}
{"gene knocked down": "SETD6 (SET domain containing 6, protein lysine methyltransferase)", "technical replicate": "2", "viability, normalised (%)": 69.1, "activity call": "active"}
{"gene knocked down": "SETD6 (SET domain containing 6, protein lysine methyltransferase)", "technical replicate": "3", "viability, normalised (%)": 63.4, "activity call": "active"}
{"gene knocked down": "CDK11A (cyclin dependent kinase 11A)", "technical replicate": "1", "viability, normalised (%)": 105, "activity call": "inactive"}
{"gene knocked down": "CDK11A (cyclin dependent kinase 11A)", "technical replicate": "1", "viability, normalised (%)": 73.1, "activity call": "active"}
{"gene knocked down": "CDK11A (cyclin dependent kinase 11A)", "technical replicate": "2", "viability, normalised (%)": 87.9, "activity call": "inactive"}
{"gene knocked down": "CDK11A (cyclin dependent kinase 11A)", "technical replicate": "2", "viability, normalised (%)": 73.3, "activity call": "active"}
{"gene knocked down": "CDK11A (cyclin dependent kinase 11A)", "technical replicate": "3", "viability, normalised (%)": 69.4, "activity call": "active"}
{"gene knocked down": "CDK11A (cyclin dependent kinase 11A)", "technical replicate": "3", "viability, normalised (%)": 93.4, "activity call": "inactive"}
{"gene knocked down": "SP110 (SP110 nuclear body protein)", "technical replicate": "1", "viability, normalised (%)": 66.5, "activity call": "active"}
{"gene knocked down": "SP110 (SP110 nuclear body protein)", "technical replicate": "2", "viability, normalised (%)": 55, "activity call": "active"}
{"gene knocked down": "SP110 (SP110 nuclear body protein)", "technical replicate": "3", "viability, normalised (%)": 54.9, "activity call": "active"}
{"gene knocked down": "UBTF (upstream binding transcription factor)", "technical replicate": "1", "viability, normalised (%)": 68.6, "activity call": "active"}
{"gene knocked down": "UBTF (upstream binding transcription factor)", "technical replicate": "2", "viability, normalised (%)": 65.1, "activity call": "active"}
{"gene knocked down": "UBTF (upstream binding transcription factor)", "technical replicate": "3", "viability, normalised (%)": 39.8, "activity call": "active"}
{"gene knocked down": "CERK (ceramide kinase)", "technical replicate": "1", "viability, normalised (%)": 97.3, "activity call": "inactive"}
{"gene knocked down": "CERK (ceramide kinase)", "technical replicate": "2", "viability, normalised (%)": 83.3, "activity call": "inactive"}
{"gene knocked down": "CERK (ceramide kinase)", "technical replicate": "3", "viability, normalised (%)": 66.2, "activity call": "active"}
{"gene knocked down": "PLCH2 (phospholipase C eta 2)", "technical replicate": "1", "viability, normalised (%)": 63.4, "activity call": "active"}
{"gene knocked down": "PLCH2 (phospholipase C eta 2)", "technical replicate": "2", "viability, normalised (%)": 81.6, "activity call": "inactive"}
{"gene knocked down": "PLCH2 (phospholipase C eta 2)", "technical replicate": "3", "viability, normalised (%)": 80.5, "activity call": "inactive"}

5 neighbouring records from above:
{"gene knocked down": "CDK11A (cyclin dependent kinase 11A)", "technical replicate": "1", "viability, normalised (%)": 105, "activity call": "inactive"}
{"gene knocked down": "CDK11A (cyclin dependent kinase 11A)", "technical replicate": "1", "viability, normalised (%)": 73.1, "activity call": "active"}
{"gene knocked down": "CDK11A (cyclin dependent kinase 11A)", "technical replicate": "2", "viability, normalised (%)": 87.9, "activity call": "inactive"}
{"gene knocked down": "CDK11A (cyclin dependent kinase 11A)", "technical replicate": "2", "viability, normalised (%)": 73.3, "activity call": "active"}
{"gene knocked down": "CDK11A (cyclin dependent kinase 11A)", "technical replicate": "3", "viability, normalised (%)": 69.4, "activity call": "active"}
